Some peptides are written in HELM: one residue between dots, names in brackets for other building blocks, links after the first $. [ ]: non-standard residue; d: D form. The star is where a group is joined. Gly(N-2-aminoethyl) = NCCNCC(=O)O; Palmitoyl = CCCCCCCCCCCCCCCC(=O)*; Myristoyl = CCCCCCCCCCCCCC(=O)*; Gly(N-cHex) = O=C(O)CNC1CCCCC1; Nlys = NCCCCNCC(=O)O
Assay: general procedure: Fmoc solid-phase peptide synthesis; Fmoc protected polystyrene Rink Amide resin; bromoacetic acid (2 M) / diisopropylcarbodiimide (3.2 M), submonomer method
Settings: whole synthesis

Row | Substance | isolated yield | final HPLC purity (HPLC)
1 | PEPTIDE1{[Ndoa].[Ncha].[Nlys].[Nae].[Ncha].[am]}$$$$V2.0 | 8.7% | –
2 | PEPTIDE1{[Ntri].[Ntma].[Nlys].[Nae].[Ntma].[am]}$$$$V2.0 | 5.8% | –
3 | PEPTIDE1{[Ntri].[Nai].[Nlys].[Nae].[Nai].[am]}$$$$V2.0 | 4.4% | –
4 | PEPTIDE1{[Ntri].[Nnap].[Nlys].[Nae].[Nnap].[am]}$$$$V2.0 | 7.1% | –
5 | PEPTIDE1{[Ntri].[Npfb].[Nlys].[Nae].[Npfb].[am]}$$$$V2.0 | 8.6% | –
6 | PEPTIDE1{[Ntri].[Ncha].[Nlys(Me)3].[Nae(Me)3].[Ncha].[am]}$$$$V2.0 | 6.7% | –
7 | PEPTIDE1{[Ntri].[Npcb].[Nlys].[Nae].[Npcb].[am]}$$$$V2.0 | 60.8% | –
8 | PEPTIDE1{[Ntri].[Ncha].[Nlys].[Nae].[Ncha].[am]}$$$$V2.0 | – | >95%
9 | PEPTIDE1{[Ntri].[Ntrp].[Nlys].[Nae].[Ntrp].[am]}$$$$V2.0 | 1.7% | –
10 | PEPTIDE1{[Ntri].[Nphe].[Nlys].[Nae].[Nphe].[am]}$$$$V2.0 | 5.0% | –
11 | Palmitoyl-G[Gly(N-cHex)][Nlys][Gly(N-2-aminoethyl)][Gly(N-cHex)]-NH2 (SMILES CCCCCCCCCCCCCCCC(=O)NCC(=O)N(CC(=O)N(CCCCN)CC(=O)N(CCN)CC(=O)N(CC(N)=O)C1CCCCC1)C1CCCCC1) | 34.4% | –
12 | PEPTIDE1{[Ntri].[Npbb].[Nlys].[Nae].[Npbb].[am]}$$$$V2.0 | 55% | –
13 | PEPTIDE1{[Ntri].[Nspe].[Nlys].[Nae].[Nspe].[am]}$$$$V2.0 | 3.0% | –
14 | PEPTIDE1{[Ndha].[Ncha].[Nlys].[Nae].[Ncha].[am]}$$$$V2.0 | 23.8% | –
15 | PEPTIDE1{[Ntri].[Ncha].[Nlys].[Nlys].[Ncha].[am]}$$$$V2.0 | 58.7% | –
16 | PEPTIDE1{[Ntri].[Nfur].[Nlys].[Nae].[Nfur].[am]}$$$$V2.0 | 15.7% | –
17 | Myristoyl-G[Gly(N-cHex)][Nlys][Gly(N-2-aminoethyl)][Gly(N-cHex)]-NH2 (SMILES CCCCCCCCCCCCCC(=O)NCC(=O)N(CC(=O)N(CCCCN)CC(=O)N(CCN)CC(=O)N(CC(N)=O)C1CCCCC1)C1CCCCC1) | 3.4% | –
18 | PEPTIDE1{[Ntri].[Npib].[Nlys].[Nae].[Npib].[am]}$$$$V2.0 | 70% | –

Reference: patent publication US20240352066A1 (priority 2021, published 2024)
